The values below come from PubChem BioAssay AID2685 (National Center for Advancing Translational Sciences (NCATS), 2010).

The list shows a part of the results. The main result of the screen is listed elsewhere. These columns were measured beside it and carry no call. The list favours compounds with an active or inconclusive main result. Potencies come from curve fits of mixed quality, noted in brackets.

This experiment is described as follows: qHTS Assay for Lipid Storage Modulators in Drosophila S3 Cells.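 As to cell number change: cells counted by Cell Tracker Red CMTPX staining in the red channel.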 The following applies: BODIPY lipid droplet fluorescence, 18-24 h; for cell number change: measured here: cell count max response, cells fed with added oleic acid. Put shortly:
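Laser-scanning cytometry quantifies lipid droplet accumulation (500–530 nm total intensity; droplet/cell object ratio) in oleic acid-fed (400 uM added) Drosophila S3 cells treated with a concentration series. 20 uM Triacsin C defined 100% inhibition.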

The mark [1] stands for this setting: measured here: cell number channel AC50, cells fed with added oleic acid.
Setting [2] is: measured here: lipid fluorescence (Fed channel) AC50, cells fed with added oleic acid.

As a reminder, the AC50 is the concentration giving half of the maximal activity seen. High values mean activity only at high concentration, low ones activity at low concentration. Take `CCCCOCCCNC(=O)N[C@H](C(=O)OC)C(C)C`: the cell number change is -47.6%. Further, under setting [1], the AC50 was 20.6 µM [falling, single point].

With `CC(C)(C)NC(=O)C(c1ccc(Cl)cc1)N(CCO)C(=O)c1snc(C(N)=O)c1N` (stereo not drawn), the cell number change is -4.46%. Moreover, the AC50 under setting [2] was 18.4 µM [rising, single point].

As for `O=C(c1cc(-c2ccc(Cl)cc2)n[nH]1)N1CCc2ccccc2C1`, the cell number change was -4.89%. Under setting [2], the AC50 was 29.1 µM [falling, single point].

With `COc1ccc([C@@H]2CC(=O)c3c(O)cc(O[C@@H]4O[C@H](CO[C@@H]5O[C@@H](C)[C@H](O)[C@@H](O)[C@H]5O)[C@@H](O)[C@H](O)[C@H]4O)cc3O2)cc1O`, the cell number change was 16%. Also, under setting [2], the AC50 was 29.1 µM [rising, single point].

On to `CCSc1nnc(-c2ccccc2SC)o1`, for which the cell number change turned out to be 7.69%. The half-maximal activity concentration (AC50) under setting [2] is 0.0058 µM [rising, full curve, poor fit].

As for `NC(=O)c1ccc(NC(=O)COC(=O)c2ccc(Br)o2)cc1`, the cell number change was -1%. For the same molecule, the AC50 under setting [2] is 3.26 µM [falling, single point].

Consider `COc1ccccc1NC(=O)C1CCCN1C(=O)Nc1ccc(F)cc1` (stereo not drawn), for which the cell number change was -3.91%.

In the case of `CCCCC(=O)NNC(=S)NCc1ccccc1`, the cell number change was -16%. For the same molecule, the AC50 under setting [1] was 0.092 µM [falling, full curve, poor fit]. The AC50 under setting [2] is 2.59 µM [falling, partial curve].

Turning to `CCOC(=O)CN(C(=O)COc1nc(-c2ccccc2)cc(C)c1C#N)c1ccc(F)cc1`, under setting [2], the AC50 was 0.461 µM [rising, full curve, poor fit].

`CCOc1ccccc1OCC(=O)Nc1cc(S(=O)(=O)N2CCCCC2)ccc1OC`: the cell number change is -32.5%. Further, the AC50 under setting [1] was 23.1 µM [falling, single point]. For the same molecule, under setting [2], the AC50 is 0.92 µM [falling, full curve, poor fit].

With `S=C(Nc1cc(Cl)cc(Cl)c1)NC1CCN(Cc2ccccc2)CC1`, the cell number change is -48%. Moreover, the AC50 under setting [1] was 25.9 µM [falling, single point]. Besides, under setting [2], the AC50 was 29.1 µM [falling, single point].

In the case of `CCOC(=O)c1ccc(NC2=CC(=O)CC(c3ccco3)C2)cc1` (stereo not drawn), the cell number change was -28.3%. In addition, the AC50 under setting [1] was 3.26 µM [falling, full curve, poor fit].

Regarding `CCCCCn1ccc(=N)cc1`, the cell number change was -59.5%. Also, the AC50 under setting [1] is 13 µM [falling, partial curve, poor fit]. Under setting [2], the AC50 is 8.2 µM [falling, partial curve].

As for `Cc1c(O)ccc(/C(Cc2ccc3ccccc3n2)=N\O)c1O`, the cell number change was -1.13%. Further, the AC50 under setting [2] was 4.11 µM [falling, full curve, poor fit].

With `COc1ccccc1OC(C)C(=O)Nc1ccc(S(=O)(=O)N2CCN(C)CC2)cc1` (stereo not drawn), the cell number change amounted to 21.1%. In addition, the AC50 under setting [2] is 35.5 µM [falling, single point].

With `CCN(CC)C(=O)OCc1c(-c2ccccc2)ncc2ccccc12`, the cell number change stood at 15.5%. For the same molecule, the AC50 under setting [2] was 0.146 µM [rising, full curve, poor fit].

With `CCN(CC)C(=O)Cn1cnc2c1c(=O)n(C)c(=O)n2C`, the cell number change was -40%. Also, the AC50 under setting [1] is 0.164 µM [falling, full curve, poor fit]. Further, under setting [2], the AC50 is 7.31 µM [falling, partial curve].

Consider `COc1ccc(NC(=O)C(c2ccccc2)N2CCN(c3ccccn3)CC2)cc1Cl` (stereo not drawn), for which the cell number change was found to be 6.4%.

Take `O=C(Nc1cccc2ncccc12)c1ccc([N+](=O)[O-])o1`: the AC50 under setting [2] was 18.4 µM [falling, partial curve].

On to `Cc1ccc(-c2cc(C(=O)NCCc3ccc(S(N)(=O)=O)cc3)c3ccccc3n2)cc1`, for which the cell number change is -95.2%. For the same molecule, the AC50 under setting [1] is 20.6 µM [falling, single point]. Under setting [2], the AC50 is 29.1 µM [falling, partial curve].

In the case of `Cc1cc(O)ccc1Nc1nc(-c2cccnc2)cs1`, the cell number change is -3.16%. Moreover, the AC50 under setting [2] is 2.06 µM [rising, full curve].

With `COc1ccccc1NC(=O)CCN1C(=O)c2ccccc2S1(=O)=O`, the cell number change was found to be 17.5%.

Consider `COc1ccc(N(CC(=O)Nc2nc3ccc(C)cc3s2)S(=O)(=O)c2c(C)nn(C)c2C)cc1`, for which the cell number change was -3.7%. Under setting [2], the AC50 is 0.103 µM [rising, full curve, poor fit].

As to `CCCCNS(=O)(=O)c1cc2c3c(c1)CCN3C(=O)CC2`, the cell number change was found to be 14.9%. Also, the AC50 under setting [2] was 29.1 µM [falling, single point].

For the molecule `Cc1ccc(C(=O)C(C)OC(=O)c2ccc(Cl)nc2)cc1` (stereo not drawn), the cell number change was 31.2%. For the same molecule, under setting [1], the AC50 is 9.2 µM [rising, partial curve, poor fit]. Further, the AC50 under setting [2] was 29.1 µM [falling, single point].

For the molecule `COc1cc(OC)nc(Oc2cc(/C=N/O)ccc2OC)n1`, the cell number change was found to be 12%. For the same molecule, the AC50 under setting [2] was 1.84 µM [rising, full curve, poor fit].

In the case of `Cc1nc(C(=O)NCc2ccccc2)sc1C1(C)CC(c2cccnc2)=NO1` (stereo not drawn), the cell number change was 7.69%. For the same molecule, the AC50 under setting [2] was 1.84 µM [rising, full curve, poor fit].

For `CCOC(=O)[C@H]1[C@H]2COc3ccc(OC)cc3[C@@H]2N2C(=O)c3ccccc3NC(=O)[C@@]12C`, the cell number change is -22.3%. For the same molecule, the AC50 under setting [2] is 0.58 µM [rising, partial curve, poor fit].

`COc1ccc(OCC(=O)Nc2cc3oc4ccccc4c3cc2OC)cc1`: the cell number change was found to be 14.2%. Moreover, the AC50 under setting [2] is 29.1 µM [rising, single point].

Consider `CCOC(=O)/C(=N/Nc1ccccc1)Sc1nnc(CCc2ccccc2)n1-c1ccccc1`, for which the cell number change is -8.9%. In addition, under setting [1], the AC50 is 0.517 µM [rising, single point].

Turning to `CCN1CCCC(NC(=O)c2scc3c2CCCC3)C1` (stereo not drawn), the cell number change is -66.3%. In addition, the AC50 under setting [1] was 25.9 µM [falling, partial curve, poor fit]. The AC50 under setting [2] was 29.1 µM [falling, single point].

`O=C(Nc1ccc(SC(F)F)cc1)c1ccc2nccnc2c1`: the AC50 under setting [1] was 1.84 µM [rising, partial curve].

With `CSc1nnc(C)c(/C=C/Nc2ccc(C)cc2)n1`, the cell number change was -27.7%.

On to `C/C(=N\Nc1nc2ccccc2[nH]1)c1ccc2c(c1)OCO2`, for which the AC50 under setting [2] was 0.58 µM [falling, single point].

Turning to `O=C(c1ccc(Cl)cc1)c1oc2ccccc2c1CS(=O)(=O)c1ccccc1`, the cell number change was -9.5%.

Regarding `C=CCNc1nc(N)c([N+](=O)[O-])c(N2CCCCCC2)n1`, the cell number change was 50.5%. Further, the AC50 under setting [1] was 5.17 µM [rising, partial curve].

In the case of `CC1(C)[N+]([O-])=C2C(=[N+]([O-])C1(C)C)c1ccccc1/C2=N\O`, the cell number change turned out to be 5.37%. The AC50 under setting [2] was 1.3 µM [rising, full curve, poor fit].

Regarding `COc1ccc(OCC(=O)Nc2nonc2NC(=O)COc2ccc(OC)cc2)cc1`, the cell number change was -41.3%. Moreover, the AC50 under setting [2] was 11.2 µM [falling, partial curve, poor fit].

As for `COc1cccc(CNC(=O)c2cc3c(cc2Cl)N2CCCCCC2=NS3(=O)=O)c1`, the cell number change came to 18.5%.

On to `CC1(C)CC(=O)C2=C(C1)OC(N)=C(C#N)C21C(=O)N(CN2CCOCC2)c2ccccc21` (stereo not drawn), for which the cell number change was -1.87%. Further, under setting [1], the AC50 was 0.326 µM [falling, partial curve, poor fit].

For `COc1ccccc1NC(=O)COC(=O)c1ccc(S(=O)(=O)NCc2ccco2)cc1`, the cell number change is -24.1%. For the same molecule, the AC50 under setting [2] was 0.13 µM [rising, full curve, poor fit].

Consider `O=C(C1CCN(Cc2cc(Cl)ccc2O)CC1)N1CCN(Cc2ccccc2)CC1`, for which the cell number change turned out to be 19.2%. For the same molecule, the AC50 under setting [2] is 3.26 µM [falling, single point].

For the molecule `CCOC(=O)NC1(NC2CCCCC2)Oc2ccccc2O1`, the cell number change was -16.8%. The AC50 under setting [2] was 0.184 µM [falling, full curve, poor fit].

With `Cc1c(C(=O)C(=O)NCc2cccs2)c2ccccc2n1C`, the cell number change came to 9.4%. Moreover, under setting [2], the AC50 is 0.103 µM [rising, full curve, poor fit].

Turning to `O=C(NNC(=O)c1ccc[nH]1)Nc1cc(Cl)cc(Cl)c1`, the cell number change turned out to be 13.4%. Further, the AC50 under setting [2] is 20.6 µM [rising, single point].

For `O=C(Nc1cc(S(=O)(=O)N2CCOCC2)ccc1Cl)c1ccc(=O)[nH]c1`, the cell number change stood at 4%.

Regarding `COCCOc1nc2c(c(=O)n(C)c(=O)n2C)n1Cc1cccc(OC)c1`, the cell number change is 5.95%. In addition, the AC50 under setting [1] was 0.461 µM [rising, full curve]. Moreover, the concentration at half-maximal activity (AC50) under setting [2] is 1.84 µM [rising, partial curve].

With `Cc1ccc(CNC(=O)C2CCC(=O)N(C3CCCC3)C2)c(F)c1F` (stereo not drawn), the half-maximal activity concentration (AC50) under setting [2] is 0.326 µM [falling, single point].

As to `CC1C(Br)C(=O)NC(=O)N1Cc1ccccc1` (stereo not drawn), the cell number change is -74.7%. Besides, the AC50 under setting [1] is 16.4 µM [falling, partial curve, poor fit]. For the same molecule, the AC50 under setting [2] is 18.4 µM [falling, partial curve, poor fit].

In the case of `CCn1cc(/C=C(\NC(=O)c2ccccc2)C(=O)N2CCOCC2)c2ccccc21`, the cell number change was determined as 9.59%. For the same molecule, under setting [1], the AC50 was 0.0651 µM [rising, full curve, poor fit].

`CCC(CC)c1nnc(NC(=O)CS(=O)(=O)c2ccc(C)cc2)s1`: the cell number change is 17.1%.

As for `O=C(CSc1nnc(-c2ccccn2)n1-c1ccc(Cl)cc1)Nc1ccc2c(c1)OCO2`, the cell number change came to 34.6%. For the same molecule, the AC50 under setting [1] was 1.16 µM [rising, full curve]. Also, the AC50 under setting [2] was 0.058 µM [rising, full curve].

`CCc1ccc2nc3c(c(C(=O)O)c2c1)CCC3`: the cell number change came to 0.681%. Moreover, under setting [1], the AC50 was 0.00461 µM [falling, full curve, poor fit]. Under setting [2], the AC50 is 29.1 µM [falling, single point].

In the case of `CCOc1cccc(/C=C/C(=O)O)c1`, the cell number change amounted to 11.2%.

Regarding `CC(=O)Nc1c2c3c(cccc3n(C)c1=O)C(=O)c1ccccc1-2`, the cell number change was 16.9%. Under setting [2], the AC50 was 29.1 µM [rising, single point].

Take `CC(=O)N(c1ccccc1)C1SC(=O)N(c2ccccc2)C1=O` (stereo not drawn): the cell number change is -0.404%.

Take `CC(C)(C)C1CCc2c(sc(NC(=O)c3ccncc3)c2C(N)=O)C1` (stereo not drawn): the cell number change was -11.9%.

For `Cc1cc(NC(=O)CSc2nnnn2-c2cc(Cl)ccc2C)no1`, the AC50 under setting [2] is 0.58 µM [rising, single point].

With `O=C(Cn1cnnn1)Nc1cccc([N+](=O)[O-])c1`, the cell number change worked out at 29.5%. Besides, the AC50 under setting [1] was 0.0651 µM [rising, full curve, poor fit].
